Taken from: PubChem BioAssay AID504786 (Drosophila RNAi Screening Center, 2011)

Purpose: 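Positive regulators of HIF-driven reporter output in Drosophila cells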 (primary screen)
Cells: Drosophila S2 cells with a stable HIF luciferase reporter
Reagents: long dsRNA against Drosophila genes, about 0.2 µg dsRNA per well of a 384-well plate
Time to read-out: three days of knock-down, then 20 h of DFO before reading
Treatment: desferrioxamine (DFO) at 100 µM, an iron chelator that mimics hypoxia, for 20 h
Detection: 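HIF reporter luminescence in cells given 100 µM DFO for 20 h, using the mouse ldh-a hypoxia-response element, scored as per-plate z-scores; higher means greater loss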
Direction: z-score: higher = stronger loss of HIF reporter signal
The deposit covers about 21,000 reagents; below is an unselected part of those that have a named target and a result. 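Primary screen; positive scores mean lost reporter signal, so the sign may be inverted from the usual convention.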 Names joined by + are all predicted targets of the reagent. Further read-outs or replicates are left out here.

z-score, replicate 1, by target and reagent
Lsp1alpha (GeneID 32199): SID104200050 -0.2
CG9967 (GeneID 33414): SID104180534 0.5
asRNA:CR33945 (GeneID 3772292): SID104193872 -0.7
tgo (GeneID 41084): SID104196869 4.8
Dok (GeneID 31667): SID104197996 -0.1
CG10205 (GeneID 36650): SID104185771 1.7
casp (GeneID 36769): SID104186956 -0.2
CG40045 (GeneID 3355079): SID104201024 -0.4
yrt (GeneID 41656): SID104196351 -0.3
CG15861 (GeneID 37990): SID104184066 -0.1
CG15546 (GeneID 43659): SID104194876 -0.5
snRNP-U1-70K (GeneID 33982): SID104183404 -0.3
ATPsynepsilonL (GeneID 326144): SID104194340 0.9
CG15705 (GeneID 36815): SID104186368 -0.5
CG34367 (GeneID 5740879): SID104182030 -0.3; SID104182642 -0.2
Hsc70-2 (GeneID 41609): SID104196502 0.2
Mfe2 (GeneID 32582): SID104199661 -0.3
CG12826 (GeneID 35710): SID104185967 0
CG34125 (GeneID 4379886): SID104180642 -0.1
Ate1 (GeneID 37288): SID104185717 0.1
fig (GeneID 43511): SID104196062 0
Tl (GeneID 43222): SID104196677 -0.3
Cht12 (GeneID 246535): SID104183636 0.2
Isha (GeneID 37411): SID104184248 4.1
CG2070 (GeneID 35706): SID104186606 0
CG17321 (GeneID 35144): SID104182390 -0.4
CG1677 (GeneID 31662): SID104197908 0.7
Vha14-2 (GeneID 40748): SID104191937 -0.3
CG17199 (GeneID 42401): SID104194984 0.1
Gmppb (GeneID 40599): SID104191961 -0.4
mtSSB (GeneID 41968): SID104196797 -0.5
Smyd3 (GeneID 44554): SID104197536 -0.3
CG34228 (GeneID 5740377): SID104185092 -0.1
CG15023 (GeneID 38550): SID104188269 -0.4
Snmp1 (GeneID 42514): SID104195960 0.9
Klf15 (GeneID 31410): SID104197534 -0.3
CG7376 (GeneID 38715): SID104190621 -0.2
Rab23 (GeneID 40701): SID104192097 -0.4
Lcp1 (GeneID 35817): SID104187247 -0.4
qkr58E-2 (GeneID 37562): SID104184502 0.9
SLC22A (GeneID 40437): SID104191618 -0.2; SID104191619 -0.3
Jon99Cii (GeneID 43544): SID104196650 -0.5
CG15820 (GeneID 38277): SID104188272 -0.2
CG10584 (GeneID 40324): SID104191416 -0.3
CG14464 (GeneID 3355132): SID104187552 0.5
CG31953 (retired record) + gkt: SID104180501 -0.3
ARY (retired record) (GeneID 3355076): SID104200659 -0.1
OS9 + Hf: SID104183184 -0.2
CG11155 (GeneID 43822): SID104196976 -0.2; SID104196997 -0.3
CG32544 (GeneID 318082): SID104199825 0.5
RhoGAP16F (GeneID 32790): SID104199817 -0.3
ImpL2 (GeneID 38513): SID104188458 -0.4
l(2)k05911 (GeneID 34731): SID104182315 -0.4
l(1)sc (GeneID 30983): SID104198581 -0.2
Decay (GeneID 42008): SID104196722 -0.4
CG6066 (GeneID 43267): SID104195751 -0.3
thetaTry (GeneID 36218): SID104187497 -0.3
CG11807 (GeneID 36683): SID104185879 0
CG9281 (GeneID 32508): SID104199971 -0.3
CG8306 (GeneID 36857): SID104186933 -0.3
CG9257 (GeneID 35375): SID104182965 -0.3
CG7627 (GeneID 34148): SID104182857 -0.3
CG14518 (GeneID 43421): SID104194662 -0.3
dpy (GeneID 318824): SID104180025 -0.1; SID104180026 -0.1; SID104180264 -0.2
Cog4 (GeneID 34442): SID104182849 -0.4
CG16854 (GeneID 34539): SID104182328 -0.4
Hrd3 (GeneID 42806): SID104193948 -0.4
AP-1-2beta (GeneID 32987): SID104199128 -0.9
CG6184 (GeneID 42345): SID104195778 0.3
meigo (GeneID 42510): SID104195669 0.2
CG15408 (GeneID 33548): SID104180215 0
rempA (GeneID 33230): SID104180119 0.1
GstD8 (GeneID 48341): SID104196481 0
CG10559 (GeneID 43063): SID104194047 -0.4
Ccn (GeneID 39972): SID104189296 -0.3; SID104189298 -0.1; SID104189854 -0.4; SID104189855 0.3
